# Taken from: PubChem BioAssay AID743454 (Peter MacCallum Cancer Centre, 2014)
# Test: 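Knock-downs lowering viability or raising caspase 3/7 activity in vorinostat-treated resistant cells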 (primary screen)
# Cell system: human HCT116-VR colon cancer cells, selected for vorinostat resistance
# Reagent: siRNA pool against human genes, 40 nM siRNA pool
# Duration: vorinostat for 24 h, read-out about 72 h after transfection
# Conditions: vorinostat at 2.5 µM final
# Detection: 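Two measures, CellTiter-Fluor viability and luminescent caspase 3/7 activity, each as fold change against same-plate mock wells, mean of duplicates, then screen-wide robust z-score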
# Direction: viability robust z-score: higher = more viable cells than screen typical; caspase robust z-score: higher = more caspase 3/7 activity than screen typical
# Hit rule: 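a knock-down is a hit when classed RV1 or RV2 for lowered viability, or CA1 or CA2 for caspase activation; those lethal without drug were dropped; hits were retested singly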
# In all, the deposit lists about 18,000 reagents; shown is a part drawn at random. 450 of all reagents (2.5%) count as active. 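Single biological run; no consistent viability z cut-off exists, so the class columns, not z-scores, define the calls.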
gene knocked down,viability hit class,caspase hit class,viability robust z-score,caspase robust z-score,Call
OR9G9 (olfactory receptor family 9 subfamily G member 9),no change,no change,0.36,-1.04,inactive
AURKC (aurora kinase C),no change,no change,-0.62,-0.4,inactive
ZNF45 (zinc finger protein 45),no change,no change,0.4,1.69,inactive
LRRC61 (leucine rich repeat containing 61),no change,no change,-0.78,-0.2,inactive
GJB5 (gap junction protein beta 5),no change,no change,-1.02,0.06,inactive
TAB2 (TGF-beta activated kinase 1 (MAP3K7) binding protein 2),no change,no change,1.48,1.25,inactive
ERMN (ermin),no change,no change,-0.33,1.29,inactive
MRPL57 (mitochondrial ribosomal protein L57),no change,no change,-0.54,1.75,inactive
WDR24 (WD repeat domain 24),no change,no change,-0.45,3.1,inactive
ARGLU1 (arginine and glutamate rich 1),no change,no change,-1.18,-0.29,inactive
COMTD1 (catechol-O-methyltransferase domain containing 1),no change,no change,-0.78,-0.65,inactive
EIF3D (eukaryotic translation initiation factor 3 subunit D),no change,no change,-1.82,-0.36,inactive
PEX13 (peroxisomal biogenesis factor 13),no change,no change,-0.14,2.3,inactive
BCAS3 (BCAS3 microtubule associated cell migration factor),no change,no change,0.46,-1.19,inactive
RPP40 (ribonuclease P/MRP subunit p40),no change,no change,1.54,-1.12,inactive
UCKL1 (uridine-cytidine kinase 1 like 1),no change,no change,-0.52,-0.9,inactive
CERCAM (cerebral endothelial cell adhesion molecule),no change,no change,0.54,-0.88,inactive
OR56B1 (olfactory receptor family 56 subfamily B member 1),no change,no change,0.89,1.05,inactive
CLDN12 (claudin 12),no change,no change,-0.38,-0.34,inactive
CDH13 (cadherin 13),no change,no change,0.6,-0.22,inactive
TRIO (trio Rho guanine nucleotide exchange factor),no change,no change,2.92,0.15,inactive
TRMT6 (tRNA methyltransferase 6 non-catalytic subunit),no change,no change,0.05,1.67,inactive
EVA1C (eva-1 homolog C),no change,no change,-1.48,2.88,inactive
